The target of this experiment is CT2-YFP (YFP inserted at an internal position), expressed in N. benthamiana (maize). Briefly: co-IP; co-expression in N. benthamiana leaves; Triton X-100-solubilized microsomal membrane fractions; anti-GFP magnetic beads capture CT2-YFP or CT2^CA-YFP, 30 min at 4°C; FEA2-Myc detected with anti-Myc.

These are yes or no findings as the source states them, for the method shown. Binding seen in cells or lysates may run through a third protein. Binding calls can cover weak binding; strength is not graded here. Tags and fused reporters may be left off the sequences shown.

B1: … EAR2 (FEA2), LRR receptor-like protein, 6xMyc-tagged, expressed in N. benthamiana (receptor, UniProt Q940E8 29-613)
chain: ASTDRAALLAFRASLSPPSRAALSSWSGPLSPSWLGVSLHPATAPAPSVTTPSVAELSLRGLNLTGVIPAAPLALLRRLRTLDLSANALSGELPCSLPRSLLALDLSRNALSGAVPTCLPSSLPALRTLNLSANFLRLPLSPRLSFPARLAALDLSRNAISGAVPPRIVADPDNSALLLLDLSHNRFSGEIPAGIAAVRSLQGLFLADNQLSGDIPPGIGNLTYLQVLDLSNNRLSGSVPAGLAGCFQLLYLQLGGNQLSGALRPELDALASLKVLDLSNNKISGEIPLPLAGCRSLEVVDLSGNEISGELSSAVAKWLSLKFLSLAGNQLSGHLPDWMFSFPLLQWLDLSSNKFVGFIPDGGFNVSEVLNGGGGQGTPSESVLPPQLFVSASVDTVSWQLDLGYDVQATTGIDLSGNELCGEIPEGLVDMKGLEYLNLSCNYLAGQIPAGLGGMGRLHTLDFSHNGLSGEVPPGIAAMTVLEVLNLSYNSLSGPLPTTKFPGALAGNPGICSGKGCSENARTPEGKMEGSNHRGWLGGWHGENGWVSLGAFCISTMTSFYVSLATLLCSSNARNFVFRPVRVEY
Take B1: the binding result is “binds”.
